Laboratory results reported in paper PMC7460216 (Marine Drugs, 2020).

Tested on: panel of human tumour cell lines (NCI 60 cell-line panel)
Conditions: preliminary single dose (10 μM) testing
Source text: Protocols of testing at the DTP, NCI have been described elsewhere.

## CCCCCNC1[C@@H]2[N+]3=C4C5=C(NCC[C@@]51[C@@H](O)[C@@H](Br)C2(O)O)C(=O)c1[nH]cc(c14)CC3 (some centres unmarked) [Compound 6, Aminopentane Discorhabdin C Dihydrate Adduct]
  delta of mean growth: 33.70
  range of growth: 63.59
